According to PubChem BioAssay AID504467 (National Center for Advancing Translational Sciences (NCATS), 2011):
Hit rate of the full screen: of about 330,000 compounds, about 7,700 (2.3%) were called active. Inconclusive results, whose numbers are uncertain, are shown with a selection of clear calls. Calls come from the whole dose curve; as a rule, active = well fitted inhibition curve with a large enough effect; inconclusive = small, poorly fitted or top-dose-only effect, or effect the other way; inactive = flat fitted curve, though single readings scatter. Potencies beside an inconclusive call are fits to weak or partial responses and may not hold up.
% is set by controls: 0 for no effect and ±100 for the full control effect; potency is the fitted concentration of half-maximal effect.

Test: qHTS screen for small molecules that inhibit ELG1-dependent DNA repair in human embryonic kidney (HEK293T) cells expressing luciferase-tagged ELG1; note: nearly all actives have a fitted effect of over 55% in size
Conditions: HEK293T ELG1-luciferase reporter, luminescence, 16 h, DNA damage induced by 5-fluorouridine; activity change, negative = inhibition: at 46.1 µM (top of the series)
Method in brief: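 Overnight (16 hr) co-exposure of 2,000 cells/well to 5-fluorouridine and compound at 37 °C preceded detection. Luciferase was quantified via ONE-Glo luminescence; loss of signal denotes inhibition.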
In the case of `CCOC(=O)N1CCN(C(=O)CS(=O)(=O)Cc2nc(-c3cccc(OC)c3)oc2C)CC1`, the Potency is reported as inconclusive: 29.1 µM [inhibitor, single point].
With `CCN(CC(=O)Nc1ccc(NC(C)=O)cc1)C(=O)c1oc2c(ccc3ccccc32)c1C` the Potency was inconclusive: 18.3 µM [inhibitor, partial curve, poor fit].
For `CCCn1nnc(NC(=O)c2cccc(OCC(C)C)c2)n1`, the Potency was inconclusive: 16.4 µM [activator, partial curve].
With `CN1c2ccccc2C(C)(C)C12CCCC(=O)N2` (centres undefined) the “activity change, negative = inhibition” value was inactive: 7.96%.
In the case of `c1ccc(CCn2cnc3ccccc32)cc1`, the Potency is reported as inconclusive: 29.1 µM [activator, single point].
For `Cc1cccc(OCCOc2ccc(/C=N/NC(=O)Cc3nnc(N)s3)cc2)c1`, the Potency was inconclusive: 6.51 µM [activator, partial curve, poor fit].
In the case of `CC(C)CNC(=O)c1ccccc1NC(=O)/C=C/c1cccc([N+](=O)[O-])c1`, the “activity change, negative = inhibition” value is reported as inactive: 11%.
For `Cn1nc(/C=C/c2ccccc2)ccc1=O`, the Potency was inconclusive: 18.3 µM [activator, partial curve].
For `Cc1ccc(Cc2cnc(NC(=O)CN3CCOCC3)s2)cc1Cl`, the “activity change, negative = inhibition” value was inactive: -6.81%.
In the case of `Cc1ccn2nc(C(=O)OCC(=O)N(CC(C)C)C3CCS(=O)(=O)C3)nc2n1` (centres undefined), the “activity change, negative = inhibition” value is reported as inactive: 14%.
In the case of `COc1ccc(S(=O)(=O)Nc2ccc(F)c(F)c2)cc1C(=O)N1CCOCC1`, the “activity change, negative = inhibition” value is reported as inactive: 1.7%.
For `COc1ccc(CNCc2ccccc2[N+](=O)[O-])cc1OC`, the Potency was inconclusive: 0.631 µM [activator, partial curve, poor fit].
With `Cn1cccc1C(=O)OCC(=O)Nc1cc(C(C)(C)C)nn1-c1ccccc1` the Potency was inconclusive: 20.6 µM [inhibitor, single point].
In the case of `CC1CCN(c2nc(-c3ccncc3)nc3ccccc23)CC1`, the Potency is reported as inconclusive: 18.4 µM [inhibitor, single point].
For `CCOC(=O)C(=CNc1cc(Cl)c(-c2ccco2)c(Cl)c1)C(=O)OCC`, the Potency was active: 20.6 µM.
In the case of `O=C(/C=C/c1ccc(F)cc1)NCCc1ccc2c(c1)OCCO2`, the “activity change, negative = inhibition” value is reported as inactive: -10.1%.
For `Cc1cc(C)cc(NC(=O)CN2CCCN(S(=O)(=O)c3ccc(Br)s3)CC2)c1`, the “activity change, negative = inhibition” value was inactive: -21.5%.
In the case of `Cc1nc(NCCc2ccc(S(N)(=O)=O)cc2)c2c3c(sc2n1)CCC3`, the Potency is reported as inconclusive: 29.1 µM [inhibitor, single point].
For `Cc1c(OCC(=O)NCc2ccccn2)ccc2c3c(c(=O)oc12)CCCC3`, the “activity change, negative = inhibition” value was inactive: 4.45%.
In the case of `COc1cc(Cl)ccc1OCc1cc(C(=O)N2CCN(c3ccccn3)CC2)no1`, the Potency is reported as inconclusive: 23.1 µM [inhibitor, single point].
With `Cc1ccc2c(C)c(C(=O)NCCN3CCCC(O)C3)oc2c1C` (centres undefined) the Potency was inconclusive: 29.1 µM [activator, single point].
For `CCOc1ncccc1C(=O)Nc1cccc(-c2nnc3n2CCCCC3)c1`, the Potency was inconclusive: 29.1 µM [inhibitor, partial curve, poor fit].
With `CCc1nc2ccccc2c(C(=O)OCC(=O)Nc2ccc(NC(C)=O)cc2)c1C` the Potency was inconclusive: 18.3 µM [inhibitor, single point].
In the case of `CN1CCc2c(sc(NC(=O)c3ccc([N+](=O)[O-])o3)c2C(N)=O)C1`, the Potency is reported as inconclusive: 11.6 µM [inhibitor, partial curve, poor fit].
For `O=C(NNC(=S)Nc1ccccc1)c1ccc(O)cc1`, the Potency was inconclusive: 9.2 µM [activator, partial curve].
In the case of `C=CCn1c(=O)c2c(C)c(C)sc2n2c(Nc3ccc(OC)cc3)nnc12`, the Potency is reported as inconclusive: 29.1 µM [inhibitor, single point].
For `c1ccc2c(c1)SCc1nnc(-c3ccncc3)n1-2`, the “activity change, negative = inhibition” value was inactive: -3.22%.
For `Cc1ccc(S(=O)(=O)NNC(=O)c2sc3nc(C)cc(C)c3c2-n2cccc2)cc1`, the “activity change, negative = inhibition” value was inactive: 2.27%.
For `Cc1ccc(S(=O)(=O)N2CCC(C(=O)OC(C)C(=O)N3CCOCC3)CC2)cc1` (centres undefined), the Potency was inconclusive: 25.9 µM [activator, single point].
With `Brc1ccc(-c2nnc(-c3ccco3)o2)cc1` the Potency was inconclusive: 14.6 µM [activator, partial curve].
For `O=C(Nc1cccc(C(=O)O)c1)/C(=C\C=C\c1ccccc1)NC(=O)c1ccccc1`, the “activity change, negative = inhibition” value was inactive: 1.93%.
With `CCCC/C=C1\CCc2c([nH]c3ccccc23)C1=O` the Potency was inconclusive: 25.9 µM [activator, partial curve].
For `Cc1cc(OC(C)C(=O)N/N=C/CC(C)c2ccccc2)ccc1Cl` (centres undefined), the “activity change, negative = inhibition” value was inactive: -6.1%.
For `COc1ccc(S(=O)(=O)Nc2ccc3c(c2)OCCO3)cc1Cl`, the “activity change, negative = inhibition” value was inactive: -10.4%.
For `COc1ccccc1Oc1nc(-c2ccccc2)cc(C)c1S(C)(=O)=O`, the “activity change, negative = inhibition” value was inactive: -22.5%.
With `Cn1c(SCC(=O)Nc2ccc(Cl)cc2F)nnc1-c1ccco1` the “activity change, negative = inhibition” value was inactive: 6.07%.
For `CCOCCn1c(=O)c2c(nc3n2CCCN3CCc2ccccc2)n(C)c1=O`, the Potency was inconclusive: 29.1 µM [inhibitor, single point].
With `COC(=O)CCCCC1SCC2NC(=O)NC21O` (centres undefined) the “activity change, negative = inhibition” value was inactive: 4.14%.
For `Cc1cccc2sc(NNC(=O)c3cc(-c4cccs4)nc4ccccc34)nc12`, the Potency was inconclusive: 29.1 µM [inhibitor, single point].
In the case of `CCCCC(=O)NC(NC(=S)N1CCOCC1)C(Cl)(Cl)Cl` (centres undefined), the “activity change, negative = inhibition” value is reported as inactive: -0.795%.
In the case of `N#C/C(=C\c1ccc(O)c(O)c1)C(=O)N1CCc2ccccc21`, the “activity change, negative = inhibition” value is reported as inactive: -4.2%.
With `O=C(NCC1CCCCC1)c1cccc(-c2ccc(O)cc2)c1` the Potency was inconclusive: 23.1 µM [inhibitor, single point].
In the case of `O=c1nc2ccccc2c2n1CC(CN1CCN(c3ccccc3F)CC1)N2` (centres undefined), the Potency is reported as inconclusive: 16.4 µM [inhibitor, partial curve, poor fit].
For `CC(=O)N1CCN(c2ccccc2NC(=O)c2cc(Br)ccc2Cl)CC1`, the Potency was inconclusive: 16.4 µM [inhibitor, single point].
In the case of `CCCOc1ccc(-c2cn3ccccc3n2)cc1`, the Potency is reported as inconclusive: 0.82 µM [activator, full curve].
With `Cc1ccsc1/C=N/NC(=O)Cn1nc(C)c([N+](=O)[O-])c1C` the Potency was inconclusive: 1.3 µM [activator, full curve, poor fit].
In the case of `C[C@H]1CCC(=O)N([C@H](CSc2ccc(Br)cc2)Cc2ccccc2)CC1`, the “activity change, negative = inhibition” value is reported as inactive: -24.7%.
For `CCOC(=O)[C@@H]1[C@H]2COc3ccccc3[C@@H]2N2C(=O)N(c3ccc(OC)cc3)C(=O)[C@@]12C`, the Potency was inconclusive: 1.16 µM [inhibitor, single point].
In the case of `COC(=O)c1ccc(COc2cccc3c2CCN(Cc2cccc(C)c2)C3=O)o1`, the Potency is reported as inconclusive: 16.4 µM [inhibitor, partial curve].
For `COc1ccc(NS(=O)(=O)c2cc(C)ccc2C)cc1`, the Potency was inconclusive: 16.4 µM [inhibitor, partial curve, poor fit].
With `CC1(C)CC(=O)C(C=NCCN2CCN(C(=O)NC34CC5CC(CC(C5)C3)C4)CC2)=C(O)C1` the “activity change, negative = inhibition” value was inactive: 7.87%.
For `COc1ccc(CCNc2ncnc3nc[nH]c23)cc1OC`, the Potency was active: 14.6 µM.
With `O=C(Nc1ccncc1)c1cccc(F)c1` the “activity change, negative = inhibition” value was inactive: -4.3%.
With `O=C(Nc1nnc(-c2ccccc2)s1)c1ccc(F)cc1` the Potency was inconclusive: 5.17 µM [activator, partial curve].
With `COc1ccc(Cl)cc1NC(=S)NC1CCCC1` the “activity change, negative = inhibition” value was inactive: -22.4%.
With `COc1ccccc1NC(=O)c1ccc(S(=O)(=O)N2CCC(C)CC2)cc1` the Potency was inconclusive: 20.6 µM [inhibitor, single point].
With `CC1Cc2ccccc2N1S(=O)(=O)c1cccc(C(=O)N2CCN(c3ncccn3)CC2)c1` (centres undefined) the “activity change, negative = inhibition” value was inactive: 19.5%.
For `OCC[n+]1ccc(/C=C/c2c[nH]c3ccccc23)cc1`, the “activity change, negative = inhibition” value was inactive: -12.6%.
In the case of `CC1(C)CCC(=O)N2CC[C@H]3C[C@H](OC(=O)Nc4ccc5c(c4)OCO5)C[C@@H]1[C@H]32`, the Potency is reported as inconclusive: 10.3 µM [inhibitor, single point].
With `COc1cccc(/C=N/NC(=O)c2nnn(-c3nonc3N)c2CN(C)c2ccccc2)c1` the Potency was inconclusive: 29.1 µM [inhibitor, single point].
In the case of `Cc1ccc(C(=O)Nc2ccccc2Sc2ccccc2)cc1`, the Potency is reported as inconclusive: 18.4 µM [activator, single point].
In the case of `CC(/C=N/NC(=O)c1c(Br)cnn1C)=C\c1ccccc1`, the Potency is reported as inconclusive: 23.1 µM [activator, single point].
With `Nc1nc(-c2ccccc2)cc(-c2ccccc2)n1` the Potency was inconclusive: 16.4 µM [activator, partial curve].
With `COc1ccc(C(NC(=O)c2ccccc2F)NC(=O)c2ccccc2F)cc1` the activity change, negative = inhibition was inconclusive: 18.3% [activator].
For `O=C(c1cc2ncc(CCCl)cn2n1)N1CCCCCC1`, the Potency was inconclusive: 29.1 µM [activator, single point].
With `COc1ccc(CS(=O)(=O)CC(C)(O)c2ccc(Cl)cc2)cc1` (centres undefined) the “activity change, negative = inhibition” value was inactive: -11.6%.
With `O=C(O)/C=C/C(=O)Nc1cccc(C(F)(F)F)c1` the “activity change, negative = inhibition” value was inactive: 5.17%.
For `COc1ccc(OC)c(NC(=O)CSc2nnc(NC(=O)c3ccco3)s2)c1`, the “activity change, negative = inhibition” value was inactive: -13.8%.
For `O=C1NC(c2ccccc2)(C(F)(F)F)SC2=CCCCCN12` (centres undefined), the “activity change, negative = inhibition” value was inactive: -8.2%.
With `C/C(Cl)=C/CSc1nn2c(=O)c3ccccc3nc2s1` the Potency was inconclusive: 20.6 µM [activator, partial curve].
In the case of `O=C1c2ccccc2C(=O)C1c1ccnc2ccccc12`, the Potency is reported as inconclusive: 0.146 µM [activator, full curve].
For `COc1ccc(-c2cc(C(=O)Nc3c(F)cc(F)cc3Br)no2)cc1`, the Potency was inconclusive: 20.6 µM [activator, partial curve, poor fit].
In the case of `O=[N+]([O-])c1ccc2nc(-c3ccncc3)[nH]c2c1`, the Potency is reported as inconclusive: 23.1 µM [activator, single point].
With `C=CCN1C(=O)C(CC(=O)O)S/C1=N/N=C/c1ccc(N(CC)CC)cc1` (centres undefined) the “activity change, negative = inhibition” value was inactive: 2.15%.
